Source: publication PMC6851102

Chains of the proteins cited; added tags and fusions are not shown.
UniProt O15397: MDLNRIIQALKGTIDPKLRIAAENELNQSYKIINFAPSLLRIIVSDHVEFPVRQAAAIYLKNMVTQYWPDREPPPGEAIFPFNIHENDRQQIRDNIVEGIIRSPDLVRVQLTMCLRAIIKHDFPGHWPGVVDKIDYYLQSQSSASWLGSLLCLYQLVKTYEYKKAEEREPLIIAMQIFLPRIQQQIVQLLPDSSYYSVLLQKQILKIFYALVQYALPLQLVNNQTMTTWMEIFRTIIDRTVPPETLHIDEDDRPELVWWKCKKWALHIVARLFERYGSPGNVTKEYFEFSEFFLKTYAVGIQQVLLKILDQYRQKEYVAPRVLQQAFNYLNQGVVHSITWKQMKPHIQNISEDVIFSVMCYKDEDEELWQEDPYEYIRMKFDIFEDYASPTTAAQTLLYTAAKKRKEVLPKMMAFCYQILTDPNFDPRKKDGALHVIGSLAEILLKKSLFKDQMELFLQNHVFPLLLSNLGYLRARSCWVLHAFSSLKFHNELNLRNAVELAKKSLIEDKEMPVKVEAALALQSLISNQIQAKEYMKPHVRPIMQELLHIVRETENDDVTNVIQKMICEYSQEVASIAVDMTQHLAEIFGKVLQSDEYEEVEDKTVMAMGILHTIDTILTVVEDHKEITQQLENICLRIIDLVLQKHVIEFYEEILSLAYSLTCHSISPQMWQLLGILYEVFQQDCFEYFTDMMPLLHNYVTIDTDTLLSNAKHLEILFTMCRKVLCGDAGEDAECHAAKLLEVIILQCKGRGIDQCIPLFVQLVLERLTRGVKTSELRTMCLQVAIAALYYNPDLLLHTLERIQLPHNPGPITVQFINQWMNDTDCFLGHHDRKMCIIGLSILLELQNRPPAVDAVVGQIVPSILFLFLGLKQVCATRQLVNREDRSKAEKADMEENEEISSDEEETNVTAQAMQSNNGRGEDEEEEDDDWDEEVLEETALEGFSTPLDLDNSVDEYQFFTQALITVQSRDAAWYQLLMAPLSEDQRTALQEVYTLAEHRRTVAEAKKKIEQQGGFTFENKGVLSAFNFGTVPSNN
UniProt Q09028: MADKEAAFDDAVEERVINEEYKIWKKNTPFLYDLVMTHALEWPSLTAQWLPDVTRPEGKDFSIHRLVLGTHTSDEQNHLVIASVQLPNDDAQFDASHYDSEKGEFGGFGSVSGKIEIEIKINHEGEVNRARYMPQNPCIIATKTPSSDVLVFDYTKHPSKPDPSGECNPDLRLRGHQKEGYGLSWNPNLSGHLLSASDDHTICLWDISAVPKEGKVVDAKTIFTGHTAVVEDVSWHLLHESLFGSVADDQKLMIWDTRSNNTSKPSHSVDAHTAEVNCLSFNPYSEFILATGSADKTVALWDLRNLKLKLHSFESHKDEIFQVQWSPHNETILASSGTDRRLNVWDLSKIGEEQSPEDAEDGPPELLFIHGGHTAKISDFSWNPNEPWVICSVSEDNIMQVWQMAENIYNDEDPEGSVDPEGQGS
UniProt Q8TDI0: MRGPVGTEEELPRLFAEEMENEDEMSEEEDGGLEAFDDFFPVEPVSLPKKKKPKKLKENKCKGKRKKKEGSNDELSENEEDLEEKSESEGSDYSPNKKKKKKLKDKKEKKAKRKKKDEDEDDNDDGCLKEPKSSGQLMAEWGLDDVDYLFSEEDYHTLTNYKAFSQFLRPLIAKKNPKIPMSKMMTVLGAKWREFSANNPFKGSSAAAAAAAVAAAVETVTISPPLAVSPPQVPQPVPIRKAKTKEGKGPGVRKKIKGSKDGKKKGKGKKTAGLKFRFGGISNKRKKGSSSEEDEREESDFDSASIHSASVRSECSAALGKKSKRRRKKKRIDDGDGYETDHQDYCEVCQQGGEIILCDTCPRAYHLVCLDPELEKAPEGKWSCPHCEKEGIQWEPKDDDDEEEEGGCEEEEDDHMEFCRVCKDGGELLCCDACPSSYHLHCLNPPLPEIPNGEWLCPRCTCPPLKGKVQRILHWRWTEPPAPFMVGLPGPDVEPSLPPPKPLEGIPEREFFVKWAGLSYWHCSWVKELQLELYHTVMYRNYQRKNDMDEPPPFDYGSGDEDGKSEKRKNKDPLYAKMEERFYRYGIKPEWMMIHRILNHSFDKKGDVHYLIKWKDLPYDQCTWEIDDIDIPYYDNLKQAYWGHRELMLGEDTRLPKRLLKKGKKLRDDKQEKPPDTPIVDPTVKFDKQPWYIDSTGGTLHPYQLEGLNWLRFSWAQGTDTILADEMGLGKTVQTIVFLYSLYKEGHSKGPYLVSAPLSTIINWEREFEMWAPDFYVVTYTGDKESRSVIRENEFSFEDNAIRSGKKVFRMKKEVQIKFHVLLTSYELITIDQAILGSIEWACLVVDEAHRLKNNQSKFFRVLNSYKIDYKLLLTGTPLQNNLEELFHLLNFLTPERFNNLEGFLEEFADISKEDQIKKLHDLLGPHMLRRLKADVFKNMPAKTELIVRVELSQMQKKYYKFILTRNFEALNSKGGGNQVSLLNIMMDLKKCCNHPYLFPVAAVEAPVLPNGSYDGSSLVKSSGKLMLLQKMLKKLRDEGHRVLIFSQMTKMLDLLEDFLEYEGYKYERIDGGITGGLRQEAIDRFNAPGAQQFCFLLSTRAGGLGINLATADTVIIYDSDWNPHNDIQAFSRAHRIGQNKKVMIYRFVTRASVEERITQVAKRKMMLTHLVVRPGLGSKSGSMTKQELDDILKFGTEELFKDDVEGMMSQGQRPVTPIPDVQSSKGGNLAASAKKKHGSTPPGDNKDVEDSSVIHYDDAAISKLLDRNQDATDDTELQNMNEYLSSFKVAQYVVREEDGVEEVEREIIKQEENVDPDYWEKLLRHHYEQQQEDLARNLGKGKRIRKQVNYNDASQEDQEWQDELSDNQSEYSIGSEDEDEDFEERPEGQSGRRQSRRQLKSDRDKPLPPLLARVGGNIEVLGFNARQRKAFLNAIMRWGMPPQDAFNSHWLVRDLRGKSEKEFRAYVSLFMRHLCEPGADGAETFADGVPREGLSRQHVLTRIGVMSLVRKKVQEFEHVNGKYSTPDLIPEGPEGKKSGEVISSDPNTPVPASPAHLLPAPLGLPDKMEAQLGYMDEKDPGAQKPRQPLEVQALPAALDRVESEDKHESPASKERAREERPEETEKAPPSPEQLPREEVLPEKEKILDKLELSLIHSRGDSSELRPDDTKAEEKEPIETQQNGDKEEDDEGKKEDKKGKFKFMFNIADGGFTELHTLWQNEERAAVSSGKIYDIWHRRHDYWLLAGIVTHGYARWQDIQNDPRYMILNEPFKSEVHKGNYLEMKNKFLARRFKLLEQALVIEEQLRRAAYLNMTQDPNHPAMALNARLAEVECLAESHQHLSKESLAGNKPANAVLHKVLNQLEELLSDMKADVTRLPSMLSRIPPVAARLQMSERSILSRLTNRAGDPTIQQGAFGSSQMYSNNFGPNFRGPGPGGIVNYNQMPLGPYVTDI
UniProt Q9UBB5: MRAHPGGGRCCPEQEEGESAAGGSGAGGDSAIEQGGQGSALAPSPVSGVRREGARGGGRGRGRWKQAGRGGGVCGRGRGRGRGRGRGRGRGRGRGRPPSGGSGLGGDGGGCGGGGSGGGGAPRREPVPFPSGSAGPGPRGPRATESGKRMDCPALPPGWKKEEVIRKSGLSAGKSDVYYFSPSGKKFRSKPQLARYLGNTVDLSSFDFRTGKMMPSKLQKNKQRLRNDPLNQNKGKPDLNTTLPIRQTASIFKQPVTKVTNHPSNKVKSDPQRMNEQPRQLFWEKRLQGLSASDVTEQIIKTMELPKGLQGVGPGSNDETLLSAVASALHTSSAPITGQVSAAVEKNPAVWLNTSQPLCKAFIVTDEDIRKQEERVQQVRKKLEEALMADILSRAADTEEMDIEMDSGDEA
UniProt Q9HCK8: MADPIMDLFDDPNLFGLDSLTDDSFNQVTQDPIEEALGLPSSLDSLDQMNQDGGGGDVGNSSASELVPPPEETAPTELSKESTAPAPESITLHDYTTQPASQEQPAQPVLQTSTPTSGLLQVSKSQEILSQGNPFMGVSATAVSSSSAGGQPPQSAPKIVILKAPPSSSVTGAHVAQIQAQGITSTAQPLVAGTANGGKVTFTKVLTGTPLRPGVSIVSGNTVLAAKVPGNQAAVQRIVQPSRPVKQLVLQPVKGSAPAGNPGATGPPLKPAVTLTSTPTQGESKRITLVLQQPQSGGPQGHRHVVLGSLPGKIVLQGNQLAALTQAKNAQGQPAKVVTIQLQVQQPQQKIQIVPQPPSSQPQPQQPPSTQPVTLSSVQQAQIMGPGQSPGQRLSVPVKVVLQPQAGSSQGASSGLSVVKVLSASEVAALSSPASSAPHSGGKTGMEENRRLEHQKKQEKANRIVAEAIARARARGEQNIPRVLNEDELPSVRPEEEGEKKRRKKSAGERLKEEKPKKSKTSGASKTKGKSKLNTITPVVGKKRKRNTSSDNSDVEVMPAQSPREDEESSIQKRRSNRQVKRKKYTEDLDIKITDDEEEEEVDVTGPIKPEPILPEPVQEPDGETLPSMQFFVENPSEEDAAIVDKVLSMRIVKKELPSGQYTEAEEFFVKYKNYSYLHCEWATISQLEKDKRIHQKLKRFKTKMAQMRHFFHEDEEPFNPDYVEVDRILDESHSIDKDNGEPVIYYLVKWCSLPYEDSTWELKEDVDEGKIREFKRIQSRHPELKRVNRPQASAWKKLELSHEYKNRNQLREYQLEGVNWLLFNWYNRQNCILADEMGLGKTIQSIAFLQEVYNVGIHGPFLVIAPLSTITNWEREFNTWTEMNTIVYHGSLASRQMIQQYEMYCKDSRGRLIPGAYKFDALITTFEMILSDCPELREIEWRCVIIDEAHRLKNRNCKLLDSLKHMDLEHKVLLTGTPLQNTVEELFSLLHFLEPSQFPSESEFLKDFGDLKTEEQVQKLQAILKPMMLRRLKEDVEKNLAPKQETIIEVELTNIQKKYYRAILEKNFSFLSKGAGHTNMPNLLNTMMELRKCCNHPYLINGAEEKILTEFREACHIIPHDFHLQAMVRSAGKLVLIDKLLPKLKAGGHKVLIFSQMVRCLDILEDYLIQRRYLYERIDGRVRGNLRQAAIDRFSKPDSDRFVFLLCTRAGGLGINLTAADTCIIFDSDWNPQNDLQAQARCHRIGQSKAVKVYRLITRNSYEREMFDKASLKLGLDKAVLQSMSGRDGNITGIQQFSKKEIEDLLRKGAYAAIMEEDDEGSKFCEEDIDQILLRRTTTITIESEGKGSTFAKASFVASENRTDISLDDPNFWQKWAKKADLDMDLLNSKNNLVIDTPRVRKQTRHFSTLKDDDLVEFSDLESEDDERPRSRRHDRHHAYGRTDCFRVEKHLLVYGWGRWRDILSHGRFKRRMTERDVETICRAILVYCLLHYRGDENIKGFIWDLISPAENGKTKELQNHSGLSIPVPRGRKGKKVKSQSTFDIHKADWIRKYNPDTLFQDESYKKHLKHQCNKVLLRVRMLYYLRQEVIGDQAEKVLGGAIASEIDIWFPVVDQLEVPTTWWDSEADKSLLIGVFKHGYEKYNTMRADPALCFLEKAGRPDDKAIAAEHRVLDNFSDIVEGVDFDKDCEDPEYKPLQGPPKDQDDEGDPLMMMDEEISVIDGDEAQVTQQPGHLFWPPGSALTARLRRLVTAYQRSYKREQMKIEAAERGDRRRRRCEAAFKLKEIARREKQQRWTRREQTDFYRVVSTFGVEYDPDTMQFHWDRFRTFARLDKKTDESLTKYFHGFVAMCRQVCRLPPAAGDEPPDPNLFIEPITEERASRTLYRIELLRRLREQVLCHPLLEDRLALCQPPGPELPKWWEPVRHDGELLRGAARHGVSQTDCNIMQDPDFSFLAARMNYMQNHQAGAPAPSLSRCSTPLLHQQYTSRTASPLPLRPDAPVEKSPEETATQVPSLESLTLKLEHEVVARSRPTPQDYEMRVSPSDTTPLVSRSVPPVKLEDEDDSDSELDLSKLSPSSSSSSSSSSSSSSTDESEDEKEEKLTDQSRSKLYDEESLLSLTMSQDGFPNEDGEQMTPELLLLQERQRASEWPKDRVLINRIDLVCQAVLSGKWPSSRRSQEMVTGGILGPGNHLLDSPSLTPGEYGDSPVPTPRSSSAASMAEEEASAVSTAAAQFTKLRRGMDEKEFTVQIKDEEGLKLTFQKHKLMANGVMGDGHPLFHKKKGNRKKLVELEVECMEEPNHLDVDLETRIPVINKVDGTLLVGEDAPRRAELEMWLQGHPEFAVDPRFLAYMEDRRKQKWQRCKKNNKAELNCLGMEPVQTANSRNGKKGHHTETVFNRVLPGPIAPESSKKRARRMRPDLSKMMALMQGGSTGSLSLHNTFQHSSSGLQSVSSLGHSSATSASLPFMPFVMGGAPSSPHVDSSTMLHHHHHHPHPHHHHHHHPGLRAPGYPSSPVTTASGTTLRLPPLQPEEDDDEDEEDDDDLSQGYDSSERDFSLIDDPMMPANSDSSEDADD

What was measured:
Assay in all cases: proximity labelling; BioID: FlagBirA*-tagged human ZEB1 (N- or C-terminal tag) stably in HEK293 Flp-In; tetracycline, biotin and MG-132; biotinylated proteins isolated with streptavidin-sepharose, trypsin, nLC-ESI-MS/MS; SAINT against cells with the FlagBirA* tag alone
[1] = target: T1, ZEB1-FlagBirA* (human ZEB1 with a C-terminal FlagBirA* tag) (human) (UniProt P37275)
T1 sequence: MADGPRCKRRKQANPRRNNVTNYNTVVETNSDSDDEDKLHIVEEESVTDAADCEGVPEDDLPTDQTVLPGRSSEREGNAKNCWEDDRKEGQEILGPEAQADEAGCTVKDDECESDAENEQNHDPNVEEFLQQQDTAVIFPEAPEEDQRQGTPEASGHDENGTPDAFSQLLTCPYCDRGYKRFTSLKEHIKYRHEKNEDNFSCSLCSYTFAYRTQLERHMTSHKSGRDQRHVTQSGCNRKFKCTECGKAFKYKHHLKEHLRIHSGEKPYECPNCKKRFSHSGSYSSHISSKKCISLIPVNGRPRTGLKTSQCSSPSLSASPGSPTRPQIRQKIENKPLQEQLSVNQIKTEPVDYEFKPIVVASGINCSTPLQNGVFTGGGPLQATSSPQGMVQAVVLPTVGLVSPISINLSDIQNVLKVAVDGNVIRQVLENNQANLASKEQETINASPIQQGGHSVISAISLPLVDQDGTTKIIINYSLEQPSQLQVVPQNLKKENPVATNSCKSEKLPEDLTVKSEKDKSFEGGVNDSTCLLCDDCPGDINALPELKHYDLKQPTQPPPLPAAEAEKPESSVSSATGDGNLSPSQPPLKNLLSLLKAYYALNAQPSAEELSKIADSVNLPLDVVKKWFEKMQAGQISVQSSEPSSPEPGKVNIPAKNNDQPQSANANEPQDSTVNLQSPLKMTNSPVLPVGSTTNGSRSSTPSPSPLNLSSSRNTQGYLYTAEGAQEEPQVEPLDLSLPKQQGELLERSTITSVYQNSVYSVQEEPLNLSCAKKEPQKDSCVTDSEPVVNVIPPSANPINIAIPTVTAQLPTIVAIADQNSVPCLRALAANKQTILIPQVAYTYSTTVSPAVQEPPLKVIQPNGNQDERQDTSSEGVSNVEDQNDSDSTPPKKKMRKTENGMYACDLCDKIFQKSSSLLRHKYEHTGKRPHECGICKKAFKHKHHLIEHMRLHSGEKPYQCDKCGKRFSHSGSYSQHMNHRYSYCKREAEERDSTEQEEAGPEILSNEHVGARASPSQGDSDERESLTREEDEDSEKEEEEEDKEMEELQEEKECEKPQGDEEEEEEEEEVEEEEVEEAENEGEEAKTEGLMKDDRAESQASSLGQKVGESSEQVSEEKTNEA

[2] = target: T2, FlagBirA*-ZEB1 (human ZEB1 with an N-terminal FlagBirA* tag) (human) (UniProt P37275)
T2 sequence: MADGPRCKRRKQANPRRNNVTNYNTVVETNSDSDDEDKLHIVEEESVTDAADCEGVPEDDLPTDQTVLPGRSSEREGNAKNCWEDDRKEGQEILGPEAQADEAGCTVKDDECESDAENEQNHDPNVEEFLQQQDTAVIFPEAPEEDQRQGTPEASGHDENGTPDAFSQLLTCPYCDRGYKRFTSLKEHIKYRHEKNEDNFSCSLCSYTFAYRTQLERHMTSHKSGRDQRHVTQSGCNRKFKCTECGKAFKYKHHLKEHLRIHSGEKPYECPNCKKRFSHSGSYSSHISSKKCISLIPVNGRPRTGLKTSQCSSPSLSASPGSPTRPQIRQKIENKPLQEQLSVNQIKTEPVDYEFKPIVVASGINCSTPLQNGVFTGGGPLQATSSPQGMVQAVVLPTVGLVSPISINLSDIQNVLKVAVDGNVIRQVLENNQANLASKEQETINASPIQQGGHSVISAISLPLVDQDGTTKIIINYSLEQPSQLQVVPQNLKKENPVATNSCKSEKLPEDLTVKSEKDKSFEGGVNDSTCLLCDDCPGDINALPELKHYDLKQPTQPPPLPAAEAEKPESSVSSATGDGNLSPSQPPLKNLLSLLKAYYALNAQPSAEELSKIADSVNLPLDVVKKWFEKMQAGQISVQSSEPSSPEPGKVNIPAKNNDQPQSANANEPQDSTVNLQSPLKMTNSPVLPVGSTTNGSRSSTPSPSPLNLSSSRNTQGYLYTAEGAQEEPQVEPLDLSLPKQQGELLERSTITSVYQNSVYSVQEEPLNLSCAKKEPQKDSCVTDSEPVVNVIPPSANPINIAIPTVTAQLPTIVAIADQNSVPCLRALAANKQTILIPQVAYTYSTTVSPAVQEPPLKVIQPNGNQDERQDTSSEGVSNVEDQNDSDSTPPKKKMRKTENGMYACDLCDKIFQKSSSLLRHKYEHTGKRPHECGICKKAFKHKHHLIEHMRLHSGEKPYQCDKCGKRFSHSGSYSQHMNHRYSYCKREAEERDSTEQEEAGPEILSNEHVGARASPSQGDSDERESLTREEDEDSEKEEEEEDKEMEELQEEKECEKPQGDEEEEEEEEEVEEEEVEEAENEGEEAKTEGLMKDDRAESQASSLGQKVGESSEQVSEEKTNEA

[3] = target: T3, ZEB1-FlagBirA* (human ZEB1 with a C-terminal FlagBirA* tag) (human), P37275; settings: remark: other sources report otherwise
T3 chain: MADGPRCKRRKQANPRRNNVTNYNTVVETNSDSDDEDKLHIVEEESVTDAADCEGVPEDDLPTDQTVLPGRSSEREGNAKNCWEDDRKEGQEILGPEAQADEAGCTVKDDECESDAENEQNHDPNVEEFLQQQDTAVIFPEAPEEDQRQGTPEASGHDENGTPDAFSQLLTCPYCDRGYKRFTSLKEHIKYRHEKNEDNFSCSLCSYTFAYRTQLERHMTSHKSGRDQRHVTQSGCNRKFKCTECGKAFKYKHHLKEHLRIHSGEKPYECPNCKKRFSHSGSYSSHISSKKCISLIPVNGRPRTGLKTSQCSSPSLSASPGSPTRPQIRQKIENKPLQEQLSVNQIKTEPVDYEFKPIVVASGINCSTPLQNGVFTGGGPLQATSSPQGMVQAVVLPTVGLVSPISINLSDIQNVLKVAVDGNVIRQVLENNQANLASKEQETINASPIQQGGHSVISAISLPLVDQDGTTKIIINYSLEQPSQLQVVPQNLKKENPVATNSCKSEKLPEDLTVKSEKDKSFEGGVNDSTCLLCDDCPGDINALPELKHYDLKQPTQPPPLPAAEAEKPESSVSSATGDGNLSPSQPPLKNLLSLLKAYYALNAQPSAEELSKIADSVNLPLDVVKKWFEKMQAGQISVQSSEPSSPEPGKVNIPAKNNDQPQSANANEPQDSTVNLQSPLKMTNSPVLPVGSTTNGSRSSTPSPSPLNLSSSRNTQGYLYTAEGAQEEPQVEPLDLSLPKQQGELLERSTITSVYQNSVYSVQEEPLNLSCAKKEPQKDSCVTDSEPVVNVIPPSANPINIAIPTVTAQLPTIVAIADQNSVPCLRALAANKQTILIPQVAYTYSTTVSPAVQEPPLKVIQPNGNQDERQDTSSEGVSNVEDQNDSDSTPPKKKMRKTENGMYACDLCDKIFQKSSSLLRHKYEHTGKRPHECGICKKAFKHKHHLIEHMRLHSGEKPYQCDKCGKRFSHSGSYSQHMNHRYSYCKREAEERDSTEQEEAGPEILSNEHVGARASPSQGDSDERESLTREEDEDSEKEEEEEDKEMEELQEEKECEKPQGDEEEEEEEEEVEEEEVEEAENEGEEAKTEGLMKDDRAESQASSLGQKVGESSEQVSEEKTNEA

[4] = target: T4, FlagBirA*-ZEB1 (human ZEB1 with an N-terminal FlagBirA* tag) (human), P37275; settings: remark: other sources report otherwise
T4 chain: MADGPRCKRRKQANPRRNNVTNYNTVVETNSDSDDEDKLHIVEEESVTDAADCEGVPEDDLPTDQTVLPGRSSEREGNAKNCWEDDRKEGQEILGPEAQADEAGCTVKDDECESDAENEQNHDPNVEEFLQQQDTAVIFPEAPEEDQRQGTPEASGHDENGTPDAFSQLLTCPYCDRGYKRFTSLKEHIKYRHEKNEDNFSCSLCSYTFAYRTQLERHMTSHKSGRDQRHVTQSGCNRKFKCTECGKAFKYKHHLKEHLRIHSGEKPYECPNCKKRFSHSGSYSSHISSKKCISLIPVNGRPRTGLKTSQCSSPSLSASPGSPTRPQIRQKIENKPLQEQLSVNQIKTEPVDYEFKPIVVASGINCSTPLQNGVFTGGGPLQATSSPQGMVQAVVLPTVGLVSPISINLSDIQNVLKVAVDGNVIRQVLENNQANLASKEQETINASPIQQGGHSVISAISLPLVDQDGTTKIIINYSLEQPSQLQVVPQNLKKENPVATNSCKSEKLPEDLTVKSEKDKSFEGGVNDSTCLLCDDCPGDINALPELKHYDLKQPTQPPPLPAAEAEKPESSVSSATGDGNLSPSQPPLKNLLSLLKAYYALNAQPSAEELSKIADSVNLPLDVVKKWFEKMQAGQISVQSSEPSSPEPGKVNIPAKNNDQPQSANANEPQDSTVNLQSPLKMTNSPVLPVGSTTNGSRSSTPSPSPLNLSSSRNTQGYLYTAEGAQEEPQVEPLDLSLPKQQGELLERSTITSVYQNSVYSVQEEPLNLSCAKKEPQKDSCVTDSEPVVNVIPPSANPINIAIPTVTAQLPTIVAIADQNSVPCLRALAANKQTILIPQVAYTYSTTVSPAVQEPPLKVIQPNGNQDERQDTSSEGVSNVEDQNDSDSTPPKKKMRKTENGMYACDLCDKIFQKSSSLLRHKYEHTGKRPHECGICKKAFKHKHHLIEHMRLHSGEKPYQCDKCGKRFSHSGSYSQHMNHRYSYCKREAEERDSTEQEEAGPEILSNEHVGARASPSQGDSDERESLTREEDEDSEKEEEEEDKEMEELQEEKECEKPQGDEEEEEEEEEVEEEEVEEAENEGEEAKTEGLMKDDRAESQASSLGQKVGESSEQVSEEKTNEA

With “IPO8, human, endogenous (from UniProt O15397 1-1037)” the binding [1] was “binds” and the binding [2] was “binds”.

With “WDR82, human, endogenous (from UniProt Q6UXN9 1-313)” the binding [2] was “binds”.

For “RBBP4, human, endogenous (from UniProt Q09028 1-425)”, the binding [2] was “binds”.

For “CHD5, human, endogenous (from UniProt Q8TDI0 1-1954)”, the binding [2] was “binds”.

In the case of “GATAD2B, human, endogenous (from UniProt Q8WXI9 1-593)”, the binding [1] is reported as “binds” and the binding [2] is reported as “binds”.

For “MBD2, human, endogenous (from UniProt Q9UBB5 1-411)”, the binding [2] was “binds”.

With “CHD8, human, endogenous (from UniProt Q9HCK8 1-2581)” the binding [2] was “binds”.

In the case of “CHD3 (chromodomain helicase DNA-binding protein 3), human, endogenous (from UniProt Q12873 1-2000)”, the binding [2] is reported as “binds”.

B1: MTA3, human, endogenous, Q9BTC8 1-594 (protein)
chain: MAANMYRVGDYVYFENSSSNPYLIRRIEELNKTASGNVEAKVVCFYRRRDISNTLIMLADKHAKEIEEESETTVEADLTDKQKHQLKHRELFLSRQYESLPATHIRGKCSVALLNETESVLSYLDKEDTFFYSLVYDPSLKTLLADKGEIRVGPRYQADIPEMLLEGESDEREQSKLEVKVWDPNSPLTDRQIDQFLVVARAVGTFARALDCSSSVRQPSLHMSAAAASRDITLFHAMDTLYRHSYDLSSAISVLVPLGGPVLCRDEMEEWSASEASLFEEALEKYGKDFNDIRQDFLPWKSLTSIIEYYYMWKTTDRYVQQKRLKAAEAESKLKQVYIPTYSKPNPNQISTSNGKPGAVNGAVGTTFQPQNPLLGRACESCYATQSHQWYSWGPPNMQCRLCAICWLYWKKYGGLKMPTQSEEEKLSPSPTTEDPRVRSHVSRQAMQGMPVRNTGSPKSAVKTRQAFFLHTTYFTKFARQVCKNTLRLRQAARRPFVAINYAAIRAEYADRHAELSGSPLKSKSTRKPLACIIGYLEIHPAKKPNVIRSTPSLQTPTTKRMLTTPNHTSLSILGKRNYSHHNGLDELTCCVSD
With B1 the binding [3] was “binds” and the binding [4] was “binds”.

B2: ADNP, human, endogenous (protein, UniProt Q9H2P0 1-1102)
chain: MFQLPVNNLGSLRKARKTVKKILSDIGLEYCKEHIEDFKQFEPNDFYLKNTTWEDVGLWDPSLTKNQDYRTKPFCCSACPFSSKFFSAYKSHFRNVHSEDFENRILLNCPYCTFNADKKTLETHIKIFHAPNASAPSSSLSTFKDKNKNDGLKPKQADSVEQAVYYCKKCTYRDPLYEIVRKHIYREHFQHVAAPYIAKAGEKSLNGAVPLGSNAREESSIHCKRCLFMPKSYEALVQHVIEDHERIGYQVTAMIGHTNVVVPRSKPLMLIAPKPQDKKSMGLPPRIGSLASGNVRSLPSQQMVNRLSIPKPNLNSTGVNMMSSVHLQQNNYGVKSVGQGYSVGQSMRLGLGGNAPVSIPQQSQSVKQLLPSGNGRSYGLGSEQRSQAPARYSLQSANASSLSSGQLKSPSLSQSQASRVLGQSSSKPAAAATGPPPGNTSSTQKWKICTICNELFPENVYSVHFEKEHKAEKVPAVANYIMKIHNFTSKCLYCNRYLPTDTLLNHMLIHGLSCPYCRSTFNDVEKMAAHMRMVHIDEEMGPKTDSTLSFDLTLQQGSHTNIHLLVTTYNLRDAPAESVAYHAQNNPPVPPKPQPKVQEKADIPVKSSPQAAVPYKKDVGKTLCPLCFSILKGPISDALAHHLRERHQVIQTVHPVEKKLTYKCIHCLGVYTSNMTASTITLHLVHCRGVGKTQNGQDKTNAPSRLNQSPSLAPVKRTYEQMEFPLLKKRKLDDDSDSPSFFEEKPEEPVVLALDPKGHEDDSYEARKSFLTKYFNKQPYPTRREIEKLAASLWLWKSDIASHFSNKRKKCVRDCEKYKPGVLLGFNMKELNKVKHEMDFDAEWLFENHDEKDSRVNASKTADKKLNLGKEDDSSSDSFENLEEESNESGSPFDPVFEVEPKISNDNPEEHVLKVIPEDASESEEKLDQKEDGSKYETIHLTEEPTKLMHNASDSEVDQDDVVEWKDGASPSESGPGSQQVSDFEDNTCEMKPGTWSDESSQSEDARSSKPAAKKKATMQGDREQLKWKNSSYGKVEGFWSKDQSQWKNASENDERLSNPQIEWQNSTIDSEDGEQFDNMTDGVAEPMHGSLAGVKLSSQQA
In the case of B2, the binding [2] is reported as “binds”.

Results are given in words; binding and its absence hold for the method and conditions named. Binding seen in cells or lysates may run through a third protein. A yes stands for co-enrichment or nearness to the bait. Other partners may have been found. Tags and fused reporters may be left off the sequences shown.
